Measurements from PMC3577775.
These are yes or no findings as the source states them, for the method shown. Binding seen in cells or lysates may run through a third protein. Some binding calls cover weakened binding; strength is not graded here.

Experiments:
[1] = target: Myc-tagged NOD2 (full-length, pCMV-Myc-NOD2) (human) (UniProt Q9HC29); assay: co-IP; HEK293T cells transfected 24 h, lysed in RIPA buffer (50 mM TrisCl, 150 mM NaCl, 1% NP-40, 0.5% deoxycholate, 0.1% SDS); anti-Myc or anti-GFP antibodies at 4°C, Protein G Sepharose, five washes, immunoblot; in some panels cells treated with gMDP (5 µg/mL, 4 h) or with scrambled siRNA or si-p62; for NOD2 with itself Myc-NOD2 was precipitated and the HA-tagged copy blotted
[2] = target: GFP-conjugated p62 (full-length p62/SQSTM1 in pEGFP-C1) (human) (UniProt Q13501); assay: as above

Substance | binding [1] | binding [2]
GFP-conjugated p62 (full-length p62/SQSTM1 in pEGFP-C1) (from UniProt Q13501-1 1-440) | binds | 
Myc-tagged NOD2 (full-length, pCMV-Myc-NOD2) (from UniProt Q9HC29 1-1040) | binds | binds
